Results are given in words; binding and its absence hold for the method and conditions named. Binding seen in cells or lysates may run through a third protein. Some entries that bind do so weakly or less than the wild type.
Biological target: SIRT1 (UniProt Q96EB6)
Assay: co-IP

Amino acid sequences for entries named in this document (tags omitted).
UniProt Q96EB6: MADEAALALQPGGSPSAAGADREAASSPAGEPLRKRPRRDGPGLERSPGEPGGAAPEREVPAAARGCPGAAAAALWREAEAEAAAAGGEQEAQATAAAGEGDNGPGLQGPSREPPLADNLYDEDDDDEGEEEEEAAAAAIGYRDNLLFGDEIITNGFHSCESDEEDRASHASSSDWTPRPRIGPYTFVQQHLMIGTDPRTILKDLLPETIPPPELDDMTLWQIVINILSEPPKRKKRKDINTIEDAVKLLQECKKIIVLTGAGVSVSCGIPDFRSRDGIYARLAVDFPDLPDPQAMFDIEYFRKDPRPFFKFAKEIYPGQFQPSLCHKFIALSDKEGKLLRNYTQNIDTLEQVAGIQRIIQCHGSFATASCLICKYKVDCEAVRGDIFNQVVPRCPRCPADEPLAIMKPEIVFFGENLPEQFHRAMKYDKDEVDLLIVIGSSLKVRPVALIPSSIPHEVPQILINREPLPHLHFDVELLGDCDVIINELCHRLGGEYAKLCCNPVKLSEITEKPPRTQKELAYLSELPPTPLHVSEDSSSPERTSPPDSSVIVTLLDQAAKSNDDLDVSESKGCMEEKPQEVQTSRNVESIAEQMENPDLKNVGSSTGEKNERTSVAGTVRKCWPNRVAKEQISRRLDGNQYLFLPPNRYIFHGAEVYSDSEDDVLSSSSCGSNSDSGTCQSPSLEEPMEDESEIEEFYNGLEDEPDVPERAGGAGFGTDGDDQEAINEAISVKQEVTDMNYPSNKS
UniProt Q15022: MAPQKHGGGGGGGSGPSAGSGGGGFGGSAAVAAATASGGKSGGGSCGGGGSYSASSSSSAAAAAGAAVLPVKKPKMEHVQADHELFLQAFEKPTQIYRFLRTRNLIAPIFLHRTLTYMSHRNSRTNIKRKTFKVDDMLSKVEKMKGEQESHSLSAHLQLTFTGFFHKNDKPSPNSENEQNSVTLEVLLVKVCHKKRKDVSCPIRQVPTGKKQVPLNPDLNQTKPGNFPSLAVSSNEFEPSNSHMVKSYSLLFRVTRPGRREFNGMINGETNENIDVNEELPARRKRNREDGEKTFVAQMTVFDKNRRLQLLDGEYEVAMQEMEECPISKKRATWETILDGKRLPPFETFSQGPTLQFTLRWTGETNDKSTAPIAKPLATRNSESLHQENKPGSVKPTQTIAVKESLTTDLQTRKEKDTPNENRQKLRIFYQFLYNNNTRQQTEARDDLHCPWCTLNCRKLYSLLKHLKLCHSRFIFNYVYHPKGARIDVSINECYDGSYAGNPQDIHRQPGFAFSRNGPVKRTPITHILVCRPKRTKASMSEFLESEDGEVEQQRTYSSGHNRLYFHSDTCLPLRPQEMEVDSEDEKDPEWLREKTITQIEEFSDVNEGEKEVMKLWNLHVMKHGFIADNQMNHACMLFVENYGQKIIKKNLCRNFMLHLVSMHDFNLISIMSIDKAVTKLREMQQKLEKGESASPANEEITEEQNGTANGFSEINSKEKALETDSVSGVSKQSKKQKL

SUZ12 (PRC2 complex subunit) (from UniProt Q15022 1-739)
binding: binds

— publication doi:10.1101/024844
